The target in this assay is endogenous PP1α (human (endogenous in 293T)) (UniProt P62136). Description: affinity purification with mass spectrometry.

Chains of the proteins cited; added tags and fusions are not shown.
UniProt P62136: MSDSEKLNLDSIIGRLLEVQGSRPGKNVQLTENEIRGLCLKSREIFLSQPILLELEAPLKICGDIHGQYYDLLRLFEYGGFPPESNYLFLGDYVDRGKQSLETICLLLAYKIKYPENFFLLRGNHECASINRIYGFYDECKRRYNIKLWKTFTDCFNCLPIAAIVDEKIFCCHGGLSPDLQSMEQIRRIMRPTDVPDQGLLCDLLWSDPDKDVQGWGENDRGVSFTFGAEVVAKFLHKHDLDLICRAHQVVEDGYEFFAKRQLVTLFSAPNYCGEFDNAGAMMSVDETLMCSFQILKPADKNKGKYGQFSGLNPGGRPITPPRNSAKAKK
UniProt Q12972: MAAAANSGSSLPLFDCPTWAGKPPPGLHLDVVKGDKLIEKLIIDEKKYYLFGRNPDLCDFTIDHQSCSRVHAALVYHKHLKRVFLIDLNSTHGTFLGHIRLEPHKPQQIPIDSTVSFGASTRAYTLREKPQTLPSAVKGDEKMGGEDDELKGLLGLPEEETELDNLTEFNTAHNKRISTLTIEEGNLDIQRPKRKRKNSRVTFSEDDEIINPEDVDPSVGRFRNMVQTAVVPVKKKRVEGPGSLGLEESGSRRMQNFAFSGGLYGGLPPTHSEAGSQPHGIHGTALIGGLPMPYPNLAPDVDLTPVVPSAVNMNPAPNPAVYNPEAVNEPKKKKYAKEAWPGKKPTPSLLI

These are yes or no findings as the source states them, for the method shown. In cells and extracts the contact can be indirect. Here binding means that the protein was enriched with, or labelled near, the bait; the list need not be complete.

Regarding “NIPP1 (Nuclear Inhibitor of PP1) (from UniProt Q12972 1-351)”, the binding result is recorded as “binds”.

B1: PNUTS (Phosphatase Nuclear Targeting Subunit) (protein, UniProt Q96QC0 1-940)
chain: MGSGPIDPKELLKGLDSFLNRDGEVKSVDGISKIFSLMKEARKMVSRCTYLNILLQTRSPEILVKFIDVGGYKLLNNWLTYSKTTNNIPLLQQILLTLQHLPLTVDHLKQNNTAKLVKQLSKSSEDEELRKLASVLVSDWMAVIRSQSSTQPAEKDKKKRKDEGKSRTTLPERPLTEVKAETRAEEAPEKKREKPKSLRTTAPSHAKFRSTGLELETPSLVPVKKNASTVVVSDKYNLKPIPLKRQSNVAAPGDATPPAEKKYKPLNTTPNATKEIKVKIIPPQPMEGLGFLDALNSAPVPGIKIKKKKKVLSPTAAKPSPFEGKTSTEPSTAKPSSPEPAPPSEAMDADRPGTPVPPVEVPELMDTASLEPGALDAKPVESPGDPNQLTRKGRKRKSVTWPEEGKLREYFYFELDETERVNVNKIKDFGEAAKREILSDRHAFETARRLSHDNMEEKVPWVCPRPLVLPSPLVTPGSNSQERYIQAEREKGILQELFLNKESPHEPDPEPYEPIPPKLIPLDEECSMDETPYVETLEPGGSGGSPDGAGGSKLPPVLANLMGSMGAGKGPQGPGGGGINVQEILTSIMGSPNSHPSEELLKQPDYSDKIKQMLVPHGLLGPGPIANGFPPGGPGGPKGMQHFPPGPGGPMPGPHGGPGGPVGPRLLGPPPPPRGGDPFWDGPGDPMRGGPMRGGPGPGPGPYHRGRGGRGGNEPPPPPPPFRGARGGRSGGGPPNGRGGPGGGMVGGGGHRPHEGPGGGMGNSSGHRPHEGPGGGMGSGHRPHEGPGGSMGGGGGHRPHEGPGGGISGGSGHRPHEGPGGGMGAGGGHRPHEGPGGSMGGSGGHRPHEGPGHGGPHGHRPHDVPGHRGHDHRGPPPHEHRGHDGPGHGGGGHRGHDGGHSHGGDMSNRPVCRHFMMKGNCRYENNCAFYHPGVNGPPLP
Regarding B1, the binding entry was “binds”.

These data come from article PMC3387161, “Small Molecules Targeted to a Non-Catalytic “RVxF” Binding Site of Protein Phosphatase-1 Inhibit HIV-1” (PLoS ONE, 2012).
